Results as given in PubChem BioAssay AID504842 (National Center for Advancing Translational Sciences (NCATS), 2011).
Among all 330,000 compounds or so, about 100 (0.03%) were called active. Inconclusive means that the source gave no clear call. Such entries were picked first, then a sample of the others. The call rests on the fitted dose curve; in most records, active means well fitted inhibition curve with a large enough effect; inconclusive means small, poorly fitted or top-dose-only effect; inactive means flat fitted curve, though single readings scatter. A potency beside an inconclusive call is a rough fit, not a confirmed value.
Further: nearly all actives have a fitted effect of over 80% in size.
Potency means the concentration at half of the fitted maximal effect.
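Wherever potency is given: enzyme at 25 nM with ATP substrate at 10 µM during the reaction.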

Each compound was assayed on Chaperonin Mm-Cpn (Methanococcus maripaludis) (assay: Inhibitors of TCP-1 ring complex (TRiC) of Methanococcus maripaludis (MmCpn): qHTS). Conditions: purified Mm-Cpn ATPase, ADP Transcreener TR-FRET.
Procedure, shortened: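 Inhibition of chaperonin ATP hydrolysis is measured as reduced ADP production, detected by competitive TR-FRET in which signal falls with ADP. Final enzyme 25 nM and ATP 10 uM, reacted 30 min at 37°C.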
For `NS(=O)(=O)c1ccc(CCNC(=O)CCS(=O)(=O)c2ccc(Br)cc2)cc1`, the Potency was “inactive”. `COc1ccc(C(=O)OCCOc2cccc(Cl)c2)cc1S(=O)(=O)N1CCOCC1` was tested, and the Potency was inconclusive: 56.2 µM [inhibitor, single point]. For `Cc1cccc2nc(=S)n(C(=O)c3ccco3)n12`, the Potency was “inactive”. `O=C(N/N=C\c1cc(Br)c(Br)o1)C1COc2ccccc2O1` (stereo unspecified) was tested, and the Potency was inconclusive: 100 µM [inhibitor, single point]. With `O=C(CSc1ccc2nnc(-c3cccnc3)n2n1)N1CCc2ccccc21` the Potency was inconclusive: 79.4 µM [inhibitor, single point]. In the case of `O=C(CN1CCN(Cc2ccc(F)cc2)CC1)NCc1ccccc1`, the Potency was inconclusive: 22.4 µM [inhibitor, single point]. For `O=C(Cc1ccccc1[N+](=O)[O-])NCCc1ccc(F)cc1`, the Potency was inconclusive: 22.4 µM [inhibitor, single point]. `O=c1ccc2c(-c3ccccc3S(=O)(=O)O)c3ccc(O)c(O)c3oc-2c1O` was tested, and the Potency was inconclusive: 112 µM [inhibitor, partial curve, poor fit]. For `Cc1ccc2nc(-c3ccc(SCC(=O)Nc4ccc5c(c4)OCCO5)nc3)[nH]c2c1`, the Potency was inconclusive: 282 µM [inhibitor, partial curve, poor fit]. With `O=C(CCc1ccccc1)NNC(=O)c1ccc(Cl)cc1` the Potency was “inactive”. For `COCCN1Cc2cccc(C(=O)Nc3ccc4c(c3)OCCO4)c2C1=O`, the Potency was inconclusive: 50.1 µM [inhibitor, single point]. In the case of `CCOc1ccc(NC(=O)CCSc2ccc3ccccc3n2)cc1`, the Potency was inconclusive: 100 µM [inhibitor, single point]. In the case of `CN1CCc2c(sc3c2C(=O)NC(c2ccco2)N3)C1` (stereo unspecified), the Potency was “inactive”. In the case of `Cc1ccc(C(=O)O)cc1NC(=S)NC(=O)c1ccc([N+](=O)[O-])cc1Cl`, the Potency was “inactive”. With `CC1CC(C)(C)Nc2ccc(OC(=O)c3ccco3)cc21` (stereo unspecified) the Potency was “inactive”. `COC(=O)[C@]1(Cc2ccccc2)N[C@H](CN(C)C(=O)Nc2ccc(F)cc2)[C@@H]2C(=O)N(C)C(=O)[C@@H]21` was tested, and the Potency was inconclusive: 11.2 µM [inhibitor, single point]. With `COc1ccc(CCNC(=O)CCN2C(=O)C3CC=CCC3C2=O)cc1OC` (stereo unspecified) the Potency was inconclusive: 22.4 µM [inhibitor, single point]. With `CCC(=O)Nc1nc2ccccc2n1Cc1ccc(Cl)cc1` the Potency was inconclusive: 12.6 µM [inhibitor, partial curve, poor fit]. `N#C/C(=C\c1c(N2CCC(C(N)=O)CC2)nc2ccccn2c1=O)C(=O)NCc1ccco1` was tested, and the Potency was “inactive”. In the case of `CCc1ccc(C(C)(O)C(CN2CCOCC2)c2ccccc2)cc1` (stereo unspecified), the Potency was inconclusive: 100 µM [inhibitor, single point]. For `O=C(Cc1ccc(Cl)cc1)NNc1c(F)c(F)cc(F)c1F`, the Potency was inconclusive: 100 µM [inhibitor, single point]. With `O=C(c1ccc(OC2CCN(Cc3ccc(F)cc3)CC2)cc1)N1CCCC1` the Potency was “inactive”. With `COc1cccc(Nc2nnc(SCc3nc4ccccc4s3)s2)c1` the Potency was inconclusive: 224 µM [inhibitor, partial curve, poor fit]. For `COCCCn1c(C(=O)NC2CCCCC2C)cc2c(=O)n3cccc(C)c3nc21` (stereo unspecified), the Potency was “inactive”. With `CCN1CCN(C(c2cccs2)C(C)NS(=O)(=O)c2ccc(Br)cc2)CC1` (stereo unspecified) the Potency was “inactive”. In the case of `COc1cc(OC)cc(-c2c(-c3cccs3)c3cc(-c4ccc(OC)c(OC)c4)ccc3n2C)c1`, the Potency was inconclusive: 100 µM [inhibitor, partial curve, poor fit]. In the case of `O=C(CCC1CCCC1)Nc1cccc(Cc2ccncc2)c1`, the Potency was inconclusive: 31.6 µM [inhibitor, single point]. `COc1ccc(C(=O)Nc2cccc(/C=C(\CCC(=O)O)c3nc4ccccc4s3)c2)cc1` was tested, and the Potency was “inactive”. For `COc1ccc(C2=CSC3=NNC4(CCCCC4)NN23)cc1`, the Potency was “inactive”. In the case of `CN(C)c1ccc(NC(=O)N2CCOCC2)cc1`, the Potency was inconclusive: 126 µM [inhibitor, partial curve, poor fit]. With `OC(COc1ccc(CNCc2cccnc2)cc1)CN1CCc2ccccc2C1` (stereo unspecified) the Potency was “inactive”. For `O=C(CN1CC(=O)Oc2ccccc21)NCc1ccco1`, the Potency was inconclusive: 17.8 µM [inhibitor, single point]. `Cc1c(-c2c(C#N)c(N)nc3c2CCCCCC3)cnn1C` was tested, and the Potency was inconclusive: 22.4 µM [inhibitor, single point]. With `Cc1cc(C)c(C(=O)Nn2c(C)nc3ccccc3c2=O)cc1C` the Potency was inconclusive: 79.4 µM [inhibitor, single point]. For `O=C(Nc1nc2c(F)cccc2s1)c1ccco1`, the Potency was inconclusive: 100 µM [inhibitor, partial curve, poor fit]. `O=C(COC(=O)c1ccccc1OC(F)F)Nc1ccc(N2CCCCC2)cc1` was tested, and the Potency was “inactive”. In the case of `Cc1ccc(S(=O)(=O)N(C)Cc2ccc(C(=O)NN=C3C4CC5CC(C4)CC3C5)cc2)cc1`, the Potency was inconclusive: 20 µM [inhibitor, single point]. For `O=C(NCCc1ccccn1)C1CCN(S(=O)(=O)c2ccc(Cl)cc2)CC1`, the Potency was “inactive”. With `Cc1cc(C)n(CCCNC(=O)c2ccc(S(=O)(=O)NCc3ccco3)cc2)n1` the Potency was inconclusive: 17.8 µM [inhibitor, single point]. For `O=[N+]([O-])c1ccccc1S(=O)(=O)NC1CCCC1`, the Potency was inconclusive: 100 µM [inhibitor, single point]. With `O=C1CN(S(=O)(=O)c2ccc(F)cc2)CCN1` the Potency was inconclusive: 15.8 µM [inhibitor, single point]. For `CCN(CC)C(=O)c1ccc(/C=C/c2c[nH]c3ccccc23)[n+](C)c1`, the Potency was “inactive”. For `Cc1cccc(NC(=S)NNC(=O)c2cccc([N+](=O)[O-])c2)c1`, the Potency was “inactive”. With `COc1ccc(OCCSc2nc(N)cc(N)n2)cc1` the Potency was “inactive”. For `Cc1c(Cl)c([N+](=O)[O-])nn1Cc1ccc(C(=O)NN)o1`, the Potency was inconclusive: 178 µM [inhibitor, partial curve, poor fit]. In the case of `COc1ccc(-c2cc(C3CC3)nc(SCC(=O)c3cccs3)c2C#N)cc1`, the Potency was inconclusive: 79.4 µM [inhibitor, single point].
